{
  "source": "paper PMC7819943",
  "about": "“Rice protein-binding microarrays: a tool to detect cis-acting elements near promoter regions in rice”",
  "note": "The list shows a part of the results.",
  "data": [
    {"biological_target": "T1, OsSMF1 (Oryza sativa, UniProt Q6ZLB0 1-436)", "T1 sequence": "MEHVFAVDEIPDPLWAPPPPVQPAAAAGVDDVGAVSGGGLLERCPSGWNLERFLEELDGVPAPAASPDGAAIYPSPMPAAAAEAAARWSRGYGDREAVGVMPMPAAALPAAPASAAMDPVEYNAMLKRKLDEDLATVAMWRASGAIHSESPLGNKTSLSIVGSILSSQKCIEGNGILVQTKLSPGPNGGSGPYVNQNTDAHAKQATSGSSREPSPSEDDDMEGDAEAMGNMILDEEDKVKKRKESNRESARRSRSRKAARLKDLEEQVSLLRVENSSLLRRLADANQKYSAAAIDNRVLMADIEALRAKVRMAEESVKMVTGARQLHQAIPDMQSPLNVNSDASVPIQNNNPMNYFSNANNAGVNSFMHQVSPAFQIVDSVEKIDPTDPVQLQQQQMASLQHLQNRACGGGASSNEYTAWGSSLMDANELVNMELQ", "assay": "protein-binding microarray (RPBM); PBS, 2% BSA, 51.3 ng/ul salmon testes DNA, 50 uM zinc acetate, 200 nM TF, 25 C, 1 h; high values mean tight binding", "details": "protein: recombinant; tags: N-terminal polyhistidine and DsRed monomer fusion (pET32a); chain copies: 2; label: CyDye5-dUTP incorporated in the synthesized complementary strand; 3' TTTTT single-stranded linker to array surface; dsDNA, one strand shown", "method_in_brief": "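Binding signal is reported as fluorescence intensity per feature (arbitrary units) from an Axon 4000B scanner. Incubation used 200 nM of each Ni–NTA-purified, N-terminally polyhistidine- and DsRed-fused transcription factor from E. coli BL21-CodonPlus on a double-stranded custom Agilent array for 1 h at 25 °C, with 50 µM zinc acetate in the buffer, followed by washing.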", "values": [
      {"sequence": "AAGTCAATGGAATATTATCATGTACGATATTGTTATAAAGCGGAGTCACCTAGTGCAG", "binding signal": "10700 fluorescence intensity (a.u.)"},
      {"sequence": "TGGTGTGTAATTTGTGCAAATTCTAAGCAAATGCAAATTGCGGAGTCACCTAGTGCAG", "binding signal": "17200 fluorescence intensity (a.u.)"},
      {"sequence": "GCCGGAGCACCGCTATACACATCACCAAAGGTCACGCTATCGGAGTCACCTAGTGCAG", "binding signal": "3700 fluorescence intensity (a.u.)"},
      {"sequence": "TGGAGGAGGAACCACGGCGCACTGGACGCGTCCAGTGATCCGGAGTCACCTAGTGCAG", "binding signal": "5300 fluorescence intensity (a.u.)"},
      {"sequence": "TCCCAAAATTCATGCAATTTCCGATATTTCACTTCCATTGCGGAGTCACCTAGTGCAG", "binding signal": "5300 fluorescence intensity (a.u.)"},
      {"sequence": "AATATACTAATTACAAACAGGTCCCTCGTGGGCTCGTGGGCGGAGTCACCTAGTGCAG", "binding signal": "3390 fluorescence intensity (a.u.)"},
      {"sequence": "AGATGGTCCCATATGTCATCCTGTCAATTAAAGCAATTGGCGGAGTCACCTAGTGCAG", "binding signal": "3490 fluorescence intensity (a.u.)"},
      {"sequence": "TAGAGTCATAGACACGACAACAGTATTAGATTCCGGCAAACGGAGTCACCTAGTGCAG", "binding signal": "3310 fluorescence intensity (a.u.)"},
      {"sequence": "CGCGCGCCGGCGTGGCGTGCGACAGCTGGAGGCTAGGCGTCGGAGTCACCTAGTGCAG", "binding signal": "4520 fluorescence intensity (a.u.)"},
      {"sequence": "TTATTGTGTGTACGTGCCAAGATCAAATTGCGATTCCTGACGGAGTCACCTAGTGCAG", "binding signal": "3480 fluorescence intensity (a.u.)"},
      {"sequence": "ACACACGCGTCTCCACAACACGTCCCTCCAGGTCCAACCCCGGAGTCACCTAGTGCAG", "binding signal": "4240 fluorescence intensity (a.u.)"},
      {"sequence": "CCACGCGCGCCAGCGATCGCCACGCCACGCCGCCGTCGCACGGAGTCACCTAGTGCAG", "binding signal": "36100 fluorescence intensity (a.u.)"},
      {"sequence": "AATTTGTTTGGAATTTATTATGGTGATGACTGGGAAGGCCCGGAGTCACCTAGTGCAG", "binding signal": "3140 fluorescence intensity (a.u.)"},
      {"sequence": "AGGTGATGATGTGGATCACGCTGACATGTGGGGCTCACGTCGGAGTCACCTAGTGCAG", "binding signal": "7940 fluorescence intensity (a.u.)"},
      {"sequence": "CAAGCTGCTTCATAAAATGCAGTATAGTTTGGGAAGAGTGCGGAGTCACCTAGTGCAG", "binding signal": "24400 fluorescence intensity (a.u.)"},
      {"sequence": "TGTGTGAACGTGACACGTCATCCTATTTAGAATCGAATACCGGAGTCACCTAGTGCAG", "binding signal": "19500 fluorescence intensity (a.u.)"},
      {"sequence": "TTGCAAAACTCTTCTAAAGATATCTAGATAAATTCTTTCTCGGAGTCACCTAGTGCAG", "binding signal": "20500 fluorescence intensity (a.u.)"},
      {"sequence": "TGATTGATTAGTCACCACACCACAGTGCCACACACGTAGTCGGAGTCACCTAGTGCAG", "binding signal": "3220 fluorescence intensity (a.u.)"},
      {"sequence": "CTCATCAGTCGCACGTACCACACCAGCATCCTCGCACGGTCGGAGTCACCTAGTGCAG", "binding signal": "4530 fluorescence intensity (a.u.)"},
      {"sequence": "CCCAGCGCGAAGCGGACGGCGATCGCGGACCGCGTGGGCTCGGAGTCACCTAGTGCAG", "binding signal": "23000 fluorescence intensity (a.u.)"},
      {"sequence": "TTTTGTGGTTGAGGGGTACGATTAGATCTAAGGCAAGACACGGAGTCACCTAGTGCAG", "binding signal": "3200 fluorescence intensity (a.u.)"},
      {"sequence": "GGAGAGACTCGTGAAGTCGTTGAAGGGAAGGTTGACTGGACGGAGTCACCTAGTGCAG", "binding signal": "3410 fluorescence intensity (a.u.)"},
      {"sequence": "CGCCGTTCCGTTTCCTCATCCAAACTACACGCACTACCTCCGGAGTCACCTAGTGCAG", "binding signal": "4150 fluorescence intensity (a.u.)"},
      {"sequence": "CGACGAGAACTTCATTCACGATGACGAGGAGGTTAGCTGGCGGAGTCACCTAGTGCAG", "binding signal": "3750 fluorescence intensity (a.u.)"},
      {"sequence": "GATCCCCAATTCGAGATGAATCATGACAAATCATCCGTGTCGGAGTCACCTAGTGCAG", "binding signal": "4450 fluorescence intensity (a.u.)"},
      {"sequence": "CACCGACGCCCTCCTCCTCCCGCCAGCTGACTCAGAAGGGCGGAGTCACCTAGTGCAG", "binding signal": "6020 fluorescence intensity (a.u.)"},
      {"sequence": "GACGCATGCACGCCGCCACGTCGCGCGCCATGGCCACCCCCGGAGTCACCTAGTGCAG", "binding signal": "9700 fluorescence intensity (a.u.)"},
      {"sequence": "TCGATTTGCCGCTCACTTCCATCCCTATGAGCATGCAGTGCGGAGTCACCTAGTGCAG", "binding signal": "3810 fluorescence intensity (a.u.)"},
      {"sequence": "GATGTTTGGGGTGATGTTTCGACATACTCGCTACTATCGACGGAGTCACCTAGTGCAG", "binding signal": "3230 fluorescence intensity (a.u.)"},
      {"sequence": "AAATAAATAAAATGAAGTTGACCTGTCACCTGTATGAGAGCGGAGTCACCTAGTGCAG", "binding signal": "4580 fluorescence intensity (a.u.)"},
      {"sequence": "TCGTACCGGTACGTGACACATCTTAATACAATGAATCTTGCGGAGTCACCTAGTGCAG", "binding signal": "4230 fluorescence intensity (a.u.)"},
      {"sequence": "TAAACTCAAACGGACGAAATATGTGGCATGTGGAATTTTCCGGAGTCACCTAGTGCAG", "binding signal": "30000 fluorescence intensity (a.u.)"},
      {"sequence": "GCGAGCTGTGCCGTTCTTGATCACCGAGGCGATGGCGGCGCGGAGTCACCTAGTGCAG", "binding signal": "39200 fluorescence intensity (a.u.)"},
      {"sequence": "CGATATACGTACACATGTGACATGACGTAATTTTACATCCCGGAGTCACCTAGTGCAG", "binding signal": "4320 fluorescence intensity (a.u.)"},
      {"sequence": "ACGGTGTCTAACAGAGTGAAAGTGACGGCGATGGCATTTTCGGAGTCACCTAGTGCAG", "binding signal": "3250 fluorescence intensity (a.u.)"},
      {"sequence": "CCTTCTCCATGGAGGACTACCTCGTCGACACCTGCGGCCTCGGAGTCACCTAGTGCAG", "binding signal": "3440 fluorescence intensity (a.u.)"},
      {"sequence": "TCGCTTCGCTCGCATCACGTGGCTCCGCCTCCTCGTCTCCCGGAGTCACCTAGTGCAG", "binding signal": "4410 fluorescence intensity (a.u.)"},
      {"sequence": "CACAACTTTTGATTTCAGGACATATGTGTTCAGCTTTCCTCGGAGTCACCTAGTGCAG", "binding signal": "3370 fluorescence intensity (a.u.)"},
      {"sequence": "TCTCTTCATCGTCGTCAGCGGCCTTGTATATTAGTGGTCACGGAGTCACCTAGTGCAG", "binding signal": "5230 fluorescence intensity (a.u.)"},
      {"sequence": "GGAAGGCGACGCGTTACTGTGCACGATGCGGACCTCGAAACGGAGTCACCTAGTGCAG", "binding signal": "60400 fluorescence intensity (a.u.)"},
      {"sequence": "ATACATTCCACATGGATTCATAGTCATGAGTCTATTTTCTCGGAGTCACCTAGTGCAG", "binding signal": "4100 fluorescence intensity (a.u.)"},
      {"sequence": "GTTCTCTCCAACTTGACTCAACATTAGTACACAATAGTATCGGAGTCACCTAGTGCAG", "binding signal": "4250 fluorescence intensity (a.u.)"}
    ]}
  ]
}
